Structures can show the parent of a compound that is named as a salt. This is one part of the list. Single values are uncertain here, since repeats match poorly.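 Free-swimming zebrafish larvae were scored for O-bend response probability to dark flashes (naive: first five; training: remaining flashes of four 60-flash blocks; test: later 60-flash block) and for turning toward alternating leftward/rightward LED motion (OMR). Six treated larvae were compared with sixty 0.1% DMSO controls; |SSMD|≥2 defined a hit.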
What was measured:
Details in all cases: 10 µM; pre-incubation: 30-90 min
[1] = test system: Danio rerio larvae (5 dpf, TLF); assay: OMR-Perf (SSMD vs DMSO vehicle); higher = higher than vehicle (e.g. higher dark-flash O-bend response probability, or better optomotor performance)
[2] = test system: Danio rerio larvae (5 dpf, TLF); assay: Prob-Test (SSMD vs DMSO vehicle); higher = higher than vehicle (e.g. higher dark-flash O-bend response probability, or better optomotor performance)
[3] = test system: Danio rerio larvae (5 dpf, TLF); assay: Prob-Naive (SSMD vs DMSO vehicle); higher = higher than vehicle (e.g. higher dark-flash O-bend response probability, or better optomotor performance)
[4] = test system: Danio rerio larvae (5 dpf, TLF); assay: Prob-Train (SSMD vs DMSO vehicle); higher = higher than vehicle (e.g. higher dark-flash O-bend response probability, or better optomotor performance)

SMILES	OMR-Perf [1]	Prob-Test [2]	Prob-Naive [3]	Prob-Train [4]
CN1CCC(=C2c3ccccc3CCc3cccnc32)CC1.O=C(O)C=CC(=O)O.O=C(O)C=CC(=O)O [Azatadine dimaleate]	-0.626	0.04	0.213	-0.694
COc1ccc2cc(CCC(C)=O)ccc2c1 [Nabumetone]	0.249	-0.663	-0.521	-1.09
O=C1c2ccccc2C(=O)c2c1ccc(O)c2O [Alizarin]	-0.096	-0.493	-0.443	-1.33
N#Cc1ccc(-c2csc(NN=C3CCCC3)n2)cc1 [Remodelin]	-0.104	-1.74	-5.72	-2.64
COc1cc2ncnc(Oc3cccc(NC(=O)Nc4cc(C(C)(C)C(F)(F)F)on4)c3)c2cc1OC	0.119	-0.468	-0.193	-0.0417
C=CCOc1ccccc1OCC(O)CNC(C)C (centres undefined) [Oxprenolol HCl]	-0.602	0.115	0.0912	0.062
CC(C)(C)CC(C)(C)c1ccc(O)c(Cc2ccc(Cl)cc2Cl)c1 [Clofoctol]	0.587	-0.469	-0.293	-1.06
CN(C)CCc1c[nH]c2ccc(CS(=O)(=O)N3CCCC3)cc12.O=C(O)CC(O)C(=O)O [Almotriptan Malate]	-0.118	-0.132	-0.226	0.233
C[C@@H]1COCCN1c1cc(C2(S(C)(=O)=O)CC2)nc(-c2cccc3[nH]ccc23)n1	0.468	-0.137	-1.03	0.0336
Cl.O=C(O)c1cn(-c2ccc(F)cc2)c2cc(N3CCNCC3)c(F)cc2c1=O [Sarafloxacin HCl]	-0.781	-0.0351	0	-0.0459
CN(C)CCC(c1ccccc1)c1ccccn1.O=C(O)/C=C\C(=O)O (centres undefined) [Pheniramine Maleate]	-0.343	-0.0124	-0.235	0.133
Cc1nc(-c2ccc(OCC(C)C)c(C#N)c2)sc1C(=O)O [Febuxostat]	-1.3	-0.101	-0.554	-0.708
CN1CCOC(c2ccccc2)c2ccccc2C1.Cl (centres undefined) [Nefopam HCl]	0.731	-0.145	-0.212	-0.498
COc1ccc(C[C@H](NC(=O)[C@H](C)NC(=O)CN2CCOCC2)C(=O)N[C@@H](Cc2ccccc2)C(=O)[C@]2(C)CO2)cc1	-0.62	0.0377	0.493	0.18
Cc1ccc(C(=O)Nc2cccc(C(F)(F)F)c2)cc1Nc1nc(-c2cccnc2)nc2c1cnn2C	-0.255	0.239	-0.589	-0.419
CCc1cccc2c3c([nH]c12)[C@](CC)(CC(=O)O)OCC3 [Etodolac]	0.541	-0.343	0.134	-0.463
O=C(NCC1CN(c2ccc(N3CCOCC3=O)cc2)C(=O)O1)c1ccc(Cl)s1 (centres undefined) [Rivaroxaban]	0.393	0.285	0.584	0.0807
Cc1ncc(-c2ccnc(Nc3ccc(S(C)(=O)=O)cc3)n2)n1C(C)C	-0.739	0.402	0.289	0.184
NC(=O)Nc1sc(-c2ccc(F)cc2)cc1C(N)=O	0.139	0.26	-0.137	0.103
CC(=O)c1cc([N+](=O)[O-])c(Sc2cccc(Cl)c2Cl)s1	-1.07	-2.23	-1.55	-1.62
CC1(C)O[C@@H]2C[C@H]3[C@@H]4CCC5=CC(=O)C=C[C@]5(C)[C@@H]4[C@H](O)C[C@]3(C)[C@@]2(C(=O)CO)O1 [Desonide]	0.799	-0.242	-0.0365	-0.245

Copied from the entries so far for reference:
SMILES	OMR-Perf [1]	Prob-Test [2]	Prob-Naive [3]	Prob-Train [4]
C=CCOc1ccccc1OCC(O)CNC(C)C (centres undefined) [Oxprenolol HCl]	-0.602	0.115	0.0912	0.062
CC(C)(C)CC(C)(C)c1ccc(O)c(Cc2ccc(Cl)cc2Cl)c1 [Clofoctol]	0.587	-0.469	-0.293	-1.06

Reference: the supplement of paper PMC10727501
